Measurements as given in PubChem BioAssay AID624297 (National Center for Advancing Translational Sciences (NCATS), 2012).
Hit rate of the full screen: of about 340,000 compounds, about 6,200 (1.8%) were called active. The inconclusive results got no clear call from the source; some entries with a clear call stand among them for comparison. Calls come from the whole dose curve; as a rule, active = well fitted activation curve with a large enough effect; inconclusive = small, poorly fitted or top-dose-only effect; inactive = no such curve, though single readings can be large or run the other way. Potencies of inconclusive entries are doubtful fits and often do not repeat.

Test: A quantitative high throughput screen for small molecules that induce DNA re-replication in SW480 colon adenocarcinoma cells. Note: nearly all actives have a fitted effect of over 55% in size.
Conditions: Hoechst DNA content imaging, 48 h; series mostly up to 46.1 µM
Outline: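 Cells (250 per well) received 23 nL compound or DMSO by pin tool and were kept 48 hr at 37 C, 5% CO2. Nuclei were then stained with Hoechst for 40 min and scanned for DNA content.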
Potency is the fitted concentration of half-maximal effect.

| SMILES | Potency |
| --- | --- |
| COc1cccc(/C=N/NC(=O)CSc2ccccc2C)c1O | inconclusive: 5.17 µM [activator, full curve] |
| CC(Sc1nc(-c2ccc(F)cc2)cs1)C(=O)N1c2ccccc2CC1C (stereo not given) | inconclusive: 29.1 µM [activator, partial curve, poor fit] |
| CCN(CC)c1ccc(N=Cc2c(C)[nH]c3ccccc23)cc1 | active: 8.2 µM |
| C=CCNC(=O)c1sc(-c2ccccc2)nc1C | inconclusive: 2.06 µM [activator, single point] |
| CC(=O)Oc1cccc(/C=c2\sc3nc(-c4ccco4)nn3c2=O)c1 | inconclusive: 29.1 µM [activator, single point] |
| COc1cn(-c2ccccc2)nc1C(=O)Nc1ccc(C)cc1 | inconclusive: 29.1 µM [activator, single point] |
| CC(C)N1C(=O)/C(=C\c2nc3ccccc3c(=O)[nH]2)c2ccccc21 | inconclusive: 20.6 µM [activator, single point] |
| Cc1nnc(CN(C)C(=O)CC2C(=O)NCCN2Cc2ccccc2C)o1 (stereo not given) | inconclusive: 3.66 µM [activator, single point] |
| Cc1ccc(NC(=O)CSc2nncn2N)cc1C | inactive |
| O=C(CSc1nc2ccccc2c(=O)n1CCCN1CCOCC1)Nc1ccc(Br)cc1 | inconclusive: 29.1 µM [activator, single point] |
| COc1ccc(-n2nc3ccc(N)cc3n2)cc1Cl | active: 20.6 µM |
| O=C(Nc1ccccc1)N1CCSc2cc(Cl)ccc21 | inactive |
| CNC(=S)N/N=C/c1cn(Cc2ccc(C)cc2)c2ccccc12 | inconclusive: 29.1 µM [activator, single point] |
| COc1ccc(CCC(=O)Nc2cc(Cl)ccc2OC)cc1 | inconclusive: 29.1 µM [activator, partial curve, poor fit] |
| CCn1nc(C)cc1C(=O)N1CCCC(N(C)CCc2ccc(OC)c(OC)c2)C1 (stereo not given) | inconclusive: 23.1 µM [activator, partial curve, poor fit] |
| CCCCNC(=S)NNC(=O)c1ccc(Br)o1 | inactive |
| CCCn1c(=O)c(C(=O)NNC(=O)c2cccc([N+](=O)[O-])c2)c(O)c2ccccc21 | inconclusive: 18.4 µM [activator, single point] |
| COc1ccccc1-c1coc2c(CN3CCOCC3)c(O)ccc2c1=O | inconclusive: 2.91 µM [activator, full curve, poor fit] |
| S=c1[nH]nc(-c2cc(-c3ccccc3)n[nH]2)n1/N=C/c1c2ccccc2cc2ccccc12 | inconclusive: 11.6 µM [activator, partial curve] |
| COc1ccc(NC(=O)C2CCCN(C(=O)Nc3ccc(OC)cc3)C2)cc1 (stereo not given) | inactive |
| COc1ccc(NC(=S)Nc2cccc([N+](=O)[O-])c2)cc1 | inactive |
| CCOC(=O)c1ccc(Nc2nnc3nc(C)cc(C)n23)cc1 | inactive |

| SMILES | Potency |
| --- | --- |
| COC(=O)C1=C(C)N(c2cc(C)cc(C)c2)/C(=C/c2ccco2)C1=O | inconclusive: 0.0046 µM [activator, full curve, poor fit] |
| S=C(NCc1ccc(Cl)cc1)Nc1ccc(Cl)cc1Cl | inactive |
| CCc1cccc2c(C(=O)COC(=O)[C@@H]3CC(O)CN3S(=O)(=O)c3ccccc3[N+](=O)[O-])c[nH]c12 (stereo not given in full) | inactive |
| COc1cccc(C(=O)C2CCCN(C(=O)c3ccc(C#CC(C)(C)O)cc3)C2)c1 (stereo not given) | inconclusive: 29.1 µM [activator, single point] |
| COc1ccc(-c2ccc3c(c2)C2CC3CCN2C(=O)OCc2ccccc2)cc1 (stereo not given) | inconclusive: 0.146 µM [activator, partial curve, poor fit] |
| COc1cc(NS(C)(=O)=O)ccc1Nc1c2ccccc2nc2ccccc12 | active: 0.15 µM |
| Cc1cc(SCC(=O)Nc2cccc(S(=O)(=O)NC3=NCCCCC3)c2)nc2ccccc12 | inconclusive: 29.1 µM [activator, single point] |
| CC(C)CCN(C(=O)C1CSC2(C)CCC(=O)N12)c1c(N)n(Cc2ccccc2)c(=O)[nH]c1=O (stereo not given) | inactive |
| CN(C)CC/C=C1\c2ccc(F)cc2Sc2cc(F)c(Cl)cc21 | inconclusive: 29.1 µM [activator, single point] |
| COC(=O)Cc1cc(=O)[nH]c(/N=C(\N)Nc2ccccc2C)n1 | inconclusive: 3.66 µM [activator, full curve, poor fit] |
| COc1ccc(CC(=O)Nc2oc(-c3ccccc3)c(-c3ccccc3)c2C#N)cc1OC | inactive |
| OCCNc1nc(Nc2ccc(Cl)c(Cl)c2)nc2ccccc12 | inactive |
| Cc1occc1C(=O)N/N=C/C1=C(N2CCOCC2)C(=C\c2ccc(Cl)cc2)/CC1 | inconclusive: 29.1 µM [activator, single point] |
| C=CCc1c(C)nc(-c2ccccc2)nc1N/N=C/c1ccncc1 | active: 23.1 µM |
| COc1ccc(C(=O)CCC(=O)N2CCN(c3cc(C)ccc3C)CC2)cc1 | inconclusive: 2.59 µM [activator, full curve, poor fit] |
| O=C(O)c1ccc(S(=O)(=O)/N=C2\C=C(Nc3ccccc3F)C(=O)c3ccccc32)cc1 | active: 6.51 µM |
| CCOc1ccc(C(=O)NC(=S)NCCCN2CCOCC2)cc1 | inconclusive: 0.164 µM [activator, full curve, poor fit] |
| CC(Oc1ccc2ccc(=O)oc2c1)C(=O)NC1CC(C)(C)NC(C)(C)C1 (stereo not given) | inactive |
| CC(=O)c1ccc(C(=O)N2CCCC(N3CCN(c4ccc(F)cc4)CC3)C2)s1 (stereo not given) | inconclusive: 29.1 µM [activator, partial curve, poor fit] |
| Cc1ccc(-n2[nH]c(C)c(C=Nc3ccc4[nH]c(=O)[nH]c4c3)c2=O)cc1C | inconclusive: 29.1 µM [activator, single point] |
| COc1ccc(C(C#N)C2(C)OCCO2)cc1OC (stereo not given) | inconclusive: 6.51 µM [activator, partial curve, poor fit] |
| CC(C)Cn1cnc2c(Sc3c([N+](=O)[O-])ncn3C)nc(N)nc21 | inactive |

| SMILES | Potency |
| --- | --- |
| COc1ccc(C(=O)N(Cc2ccccc2)Cc2cc3cc4c(cc3[nH]c2=O)OCCO4)cc1 | inconclusive: 31.6 µM [activator, single point] |
| COc1ccc(Cc2nnc(SCC(=O)N3CCCCC3)o2)cc1 | inconclusive: 6.51 µM [activator, single point] |
| Cc1cc(C(=O)Nn2c(-c3ccc(Br)cc3)nc3ccccc3c2=O)ccc1[N+](=O)[O-] | inconclusive: 20.6 µM [activator, partial curve, poor fit] |
| Cc1cc(C)c(OCCCCN2CCC(C)CC2)c(Br)c1 | inactive |
| COCCNC(=S)N/N=C(\C)c1ccccc1O | inconclusive: 0.146 µM [activator, full curve, poor fit] |
| COc1ccc(N(C(=O)c2snc(C(N)=O)c2N)C(C(=O)NCc2ccccc2)c2ccc(F)cc2)c(OC)c1 (stereo not given) | inconclusive: 29.1 µM [activator, single point] |
| O=C(COc1ccc2c(c1)CCC2)N1CCc2ccccc21 | inconclusive: 20.6 µM [activator, single point] |
| C#CCOCCOCCOCCNc1nc(N2CCN(C(=O)CCCCCCCCCCNC(=O)[C@H]([C@@H](C)CC)n3cc(CCCCCN)nn3)CC2)nc(N2CCN(C(=O)CCCCCCCCCCNC(=O)[C@H](CCCCN)n3cc(CCCC(=O)O)nn3)CC2)n1 | inactive |
| Cc1ccc(-c2nc(-c3nccc4ccccc34)oc2-c2ccccc2)cc1 | inconclusive: 6.51 µM [activator, full curve] |
| CC/C(=C\C1CCCCC1)C(NP(=O)(c1ccccc1)c1ccccc1)c1ccccc1 (stereo not given) | inconclusive: 23.1 µM [activator, partial curve, poor fit] |
| CN(CCO)c1ccc(C=NNc2ccc([N+](=O)[O-])cc2S(=O)(=O)Nc2ccccc2C(=O)O)cc1 | inconclusive: 18.4 µM [activator, single point] |
| COc1ccc(/C=C/C(=O)OCC(=O)c2ccc3c(c2)NC(=O)CO3)cc1 | inconclusive: 29.1 µM [activator, single point] |
| CCc1ccc(NC(=O)c2cc(C)no2)cc1 | inactive |
| Cc1noc(C)c1NC(=O)Nc1ccc2c(c1)C(=O)N([C@H](C)CO)C[C@H](C)[C@@H](CN(C)S(=O)(=O)c1cccs1)O2 | inconclusive: 0.092 µM [activator, partial curve, poor fit] |
| COc1ccc(CC(=O)Oc2ccccc2[N+](=O)[O-])cc1 | inconclusive: 14.6 µM [activator, single point] |
| CN(C)CCCN(C(=O)c1ccc2c(c1)CCCC2)c1nc2ccc(F)cc2s1 | inconclusive: 29.1 µM [activator, single point] |
| O=C(OCCN1C(=O)c2cccc3c(N4CCOCC4)ccc(c23)C1=O)c1ccc(Cl)cc1 | inconclusive: 2.91 µM [activator, full curve] |
| O=C(N/N=C/c1ccc([N+](=O)[O-])o1)c1cn(-c2ccccc2)nc1-c1ccc(F)cc1 | inconclusive: 23.1 µM [activator, single point] |
| CC(=O)Nc1ccc(NC(=O)CSc2nc(=O)n(Cc3cccnc3)c3c2CCC3)cc1 | inactive |
| COC(=O)CC1(C(=O)OC)Oc2ccc(Br)cc2C(=O)N1c1ccc(Br)cc1Cl (stereo not given) | inconclusive: 18.4 µM [activator, single point] |
| O=C(CCc1ccccc1)N1CCN(c2ccc([N+](=O)[O-])cc2)CC1 | inactive |

Some of these compounds in order of length of the SMILES, ascending:

| SMILES | Potency |
| --- | --- |
| CCc1ccc(NC(=O)c2cc(C)no2)cc1 | inactive |
| Cc1cc(C)c(OCCCCN2CCC(C)CC2)c(Br)c1 | inactive |
| O=C(COc1ccc2c(c1)CCC2)N1CCc2ccccc21 | inconclusive: 20.6 µM [activator, single point] |
| COc1ccc(Cc2nnc(SCC(=O)N3CCCCC3)o2)cc1 | inconclusive: 6.51 µM [activator, single point] |
| COc1ccc(CC(=O)Oc2ccccc2[N+](=O)[O-])cc1 | inconclusive: 14.6 µM [activator, single point] |
| Cc1ccc(-c2nc(-c3nccc4ccccc34)oc2-c2ccccc2)cc1 | inconclusive: 6.51 µM [activator, full curve] |
| O=C(CCc1ccccc1)N1CCN(c2ccc([N+](=O)[O-])cc2)CC1 | inactive |
| CN(C)CCCN(C(=O)c1ccc2c(c1)CCCC2)c1nc2ccc(F)cc2s1 | inconclusive: 29.1 µM [activator, single point] |
| COc1ccc(/C=C/C(=O)OCC(=O)c2ccc3c(c2)NC(=O)CO3)cc1 | inconclusive: 29.1 µM [activator, single point] |
| CC/C(=C\C1CCCCC1)C(NP(=O)(c1ccccc1)c1ccccc1)c1ccccc1 (stereo not given) | inconclusive: 23.1 µM [activator, partial curve, poor fit] |
| COC(=O)CC1(C(=O)OC)Oc2ccc(Br)cc2C(=O)N1c1ccc(Br)cc1Cl (stereo not given) | inconclusive: 18.4 µM [activator, single point] |
| COc1ccc(C(=O)N(Cc2ccccc2)Cc2cc3cc4c(cc3[nH]c2=O)OCCO4)cc1 | inconclusive: 31.6 µM [activator, single point] |
| Cc1cc(C(=O)Nn2c(-c3ccc(Br)cc3)nc3ccccc3c2=O)ccc1[N+](=O)[O-] | inconclusive: 20.6 µM [activator, partial curve, poor fit] |
| O=C(N/N=C/c1ccc([N+](=O)[O-])o1)c1cn(-c2ccccc2)nc1-c1ccc(F)cc1 | inconclusive: 23.1 µM [activator, single point] |
| CN(CCO)c1ccc(C=NNc2ccc([N+](=O)[O-])cc2S(=O)(=O)Nc2ccccc2C(=O)O)cc1 | inconclusive: 18.4 µM [activator, single point] |
| COc1ccc(N(C(=O)c2snc(C(N)=O)c2N)C(C(=O)NCc2ccccc2)c2ccc(F)cc2)c(OC)c1 (stereo not given) | inconclusive: 29.1 µM [activator, single point] |
| Cc1noc(C)c1NC(=O)Nc1ccc2c(c1)C(=O)N([C@H](C)CO)C[C@H](C)[C@@H](CN(C)S(=O)(=O)c1cccs1)O2 | inconclusive: 0.092 µM [activator, partial curve, poor fit] |
| C#CCOCCOCCOCCNc1nc(N2CCN(C(=O)CCCCCCCCCCNC(=O)[C@H]([C@@H](C)CC)n3cc(CCCCCN)nn3)CC2)nc(N2CCN(C(=O)CCCCCCCCCCNC(=O)[C@H](CCCCN)n3cc(CCCC(=O)O)nn3)CC2)n1 | inactive |
